Data published in paper PMC8639918, “Mechanism of phosphate sensing and signaling revealed by rice SPX1-PHR2 complex structure” (Nature Communications, 2021).
Results are given in words; binding and its absence hold for the method and conditions named.

Molecular target: SPX1^1–259 (C-terminally truncated fragment of rice SPX1) (rice) (UniProt Q69XJ0)
Test: SEC-MALS; Superdex 200 Increase 10/300 GL, buffer C (20 mM Tris/HCl pH 8.0, 200 mM NaCl, 1 mM TCEP) without InsP6, 2–3 mg/ml, 4 °C; both purified

binding: no binding
B1: SPX1^1–259 (C-terminally truncated fragment of rice SPX1) (domain or fragment, UniProt Q69XJ0 1-259)
chain: MKFGKSLSSQIVETLPEWRDKFLSYKDLKKRLKLIGGGGGGEERQAKRARVAADGGEEEAAAAAMTPEEAGFMRLLEAELDKFNSFFVEKEEEYIIRQKELQDRVARAAGRESKEELMRVRKEIVDFHGEMVLLENYSALNYTGLVKILKKYDKRTGALIRLPFIQKVLQQPFFTTDLLYKLVKQCEAMLDQLLPSNELSVSSEDGRGDSTNEDKPSNPSSSLVNGGTIPELDEIEYMESMYMKGTVAALRSLKEIRSG
